# Some of the results follow. These are further read-outs of the screen, such as a control signal, another cell line or another target. No call is given for them. Most of these compounds were active or inconclusive in the main read-out, so they are no random draw. Words in brackets tell the shape of the fitted curve; partial curves, single points and poor fits give uncertain potencies.
# Assay: IkB Signaling
# Conditions: ABC-DLBCL IkBa-CBG/CBR dual luciferase ratio (green luciferase fused to IkBa over red control in OCI-Ly3 lymphoma cells), 4 h
# Summary of the method: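 Luminescence ratio of IκBα-fused green versus native red beetle luciferase in OCI-Ly3 cells, 4 h post-doxycycline with compound; red signal alone, scaled from basal (0%) to zero light (-100%), flagged nonspecific or cytotoxic effects.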
# [1] = measured here: control luc red channel unless noted
compound,measurement,setting,value
CCn1c(=O)[nH]c2cc(Cl)c(Cl)cc21,AC50,[1],"39.8 µM [falling, partial curve, poor fit]"
CCOc1ccccc1N(CC(=O)NCCSc1ccccc1)S(=O)(=O)c1ccccc1,AC50,[1],"10 µM [falling, partial curve]"
COc1ccccc1Cc1nc2ccccc2nc1SCC(=O)N(C)c1ccc(F)cc1,AC50,[1],"39.8 µM [falling, single point]"
Cc1nnc(N2CCC(C(=O)NCCc3ccccc3Cl)CC2)c2nn(-c3ccccc3)c(C)c12,AC50,[1],"7.94 µM [falling, partial curve]"
COC(=O)c1sccc1NC(=O)c1cc2c(s1)CCCC2,AC50,[1],"10 µM [falling, partial curve]"
Cc1cccc(N2CCN(C(=O)Nc3cn(CC(C)C)c(=O)c4ccccc34)CC2)c1C,AC50,[1],"39.8 µM [falling, single point]"
CCOC(=O)N1CCN(c2c(F)cc3[nH]c(=S)[nH]c3c2Br)CC1,AC50,measured here: IkB-luc green channel,"25.1 µM [falling, partial curve]"
same,AC50,measured here: control luc red channel,"25.1 µM [falling, partial curve]"
CC(C)(C)c1ccc(-c2nc(SCCCOc3ccccc3)n3[nH]c(=O)cc3n2)cc1,AC50,[1],"39.8 µM [falling, single point]"
COc1ccc(-c2c3c(=O)n(C)c(=O)n(C)c3c3c(C)nc4ccccc4n23)cc1,AC50,[1],"0.126 µM [falling, partial curve]"
Cc1ccc(-c2nnc(SCc3cccc(C#N)c3)o2)cc1,AC50,[1],"39.8 µM [falling, single point]"
COc1nc(N(c2ccccc2)c2ccccc2)nc(-n2ccnc2)n1,AC50,[1],"25.1 µM [falling, partial curve]"
CCOC(=O)Cn1c(=O)n(-c2ccccc2OC)c2nc(-c3cccc(F)c3)nc(C(N)=O)c21,AC50,[1],"12.6 µM [falling, partial curve]"
CCCCc1ccc(NC(=O)c2ccc(=O)n(Cc3cccc(C)c3)c2)cc1,AC50,[1],"39.8 µM [falling, single point]"
COc1ccc(-c2nc(C)c(CCNS(=O)(=O)c3cc(C)c(C)cc3C)s2)cc1,AC50,[1],"39.8 µM [falling, single point]"
CN(C)CCNC(=O)c1ccc2c(=O)n3c(nc2c1)CCCCC3,AC50,[1],"5.01 µM [rising, partial curve]"
COc1cccc(N2CCN(C(=O)CCc3c(C)nc4c(c3C)c(=O)n(C)c(=O)n4C)CC2)c1,AC50,[1],"39.8 µM [falling, single point]"
Cc1ccccc1-n1c(SCc2ccc(Cl)cc2)nc2[nH]ncc2c1=O,AC50,[1],"39.8 µM [falling, single point]"
CCC(C)NC(=O)c1ccc2c(c1)N(Cc1ccccc1)C(=O)c1ccccc1S2 (centres undefined),AC50,[1],"20 µM [falling, single point]"
CCOc1ccc2[nH]c(=O)c(CN(Cc3nnnn3Cc3ccco3)C3CCCCC3)cc2c1,AC50,[1],"15.8 µM [falling, partial curve]"
Cc1cc(C)n(-c2nncc(-c3ccccc3)n2)n1,AC50,[1],"15.8 µM [falling, partial curve]"
CCc1ccccc1NC(=O)N(C)CCc1c(C)nn(C)c1C,AC50,[1],"0.316 µM [rising, full curve, poor fit]"
COC(=O)CCC(=O)Nc1cccc(Cl)c1,AC50,[1],"10 µM [falling, partial curve, poor fit] [measured here: IkB-luc green channel]"
Cc1ccc(-c2nc3sc(CCNC(=O)c4ccc(C)c(C)c4)c(C)n3n2)cc1,AC50,[1],"6.31 µM [falling, partial curve]"
O=C(CCS(=O)(=O)c1cccs1)Nc1ccc(C(=O)Nc2ccccc2F)cc1,AC50,[1],"31.6 µM [falling, single point]"
CCSc1ncc(Cl)c(C(=O)Nc2ccc(S(=O)(=O)N3CCCCC3)cc2)n1,AC50,[1],"6.31 µM [falling, partial curve]"
Cc1ccc(C)c(Cn2cc(S(=O)(=O)c3ccc(Cl)cc3)c(=O)c3cc(F)ccc32)c1,AC50,[1],"10 µM [falling, partial curve]"
CCCCN(CCCC)CCNC(=O)c1cn(CC)c2ccc(S(=O)(=O)N(C)C3CCCCC3)cc2c1=O,AC50,[1],"12.6 µM [falling, partial curve]"
Cc1ccc(-c2c(C)n3c4c(=O)n(C)c(=O)n(C)c4nc3n2CCO)cc1,AC50,[1],"3.16 µM [falling, partial curve]"
CC(=O)N1CCc2c(sc3c2c(=O)n(CCc2ccccc2)c(=O)n3Cc2ccc(Cl)cc2)C1,AC50,[1],"12.6 µM [falling, single point]"
CCOCCCNc1ncnc2c1cnn2-c1ccc(C)c(C)c1,AC50,[1],"12.6 µM [falling, partial curve]"
Cc1cc2c(cc1S(=O)(=O)N1CCCCC1)OCC(=O)N2,AC50,[1],"7.94 µM [rising, partial curve]"
CCOC(=O)Cc1csc(SCC(=O)Nc2sc3c(c2C(N)=O)CCC3)n1,AC50,[1],"31.6 µM [falling, single point]"
CCOc1nc(NCCc2ccc(OC)c(OC)c2)nc(NC(C)(C)CO)n1,AC50,[1],"25.1 µM [falling, partial curve]"
CCOc1ccc(C(=O)NCC(c2ccco2)S(=O)(=O)c2cccs2)cc1 (centres undefined),AC50,[1],"3.98 µM [falling, partial curve]"
O=C(CSc1nc(O)c(Cc2ccccc2)c(=O)[nH]1)Nc1ccccc1,AC50,[1],"10 µM [falling, partial curve]"
Cc1nn(-c2ccc(N3CCCC3)nn2)c(C)c1CCC(=O)N1CCN(c2ccccc2)CC1,AC50,[1],"39.8 µM [falling, single point]"
COc1ccc2c(C)c(CCC(=O)NCc3ccc(Cl)cc3)c(=O)oc2c1C,AC50,[1],"3.16 µM [rising, partial curve, poor fit]"
COC(=O)c1ccc(C(=O)OC)c(NC(=O)c2cnn3c(C(F)F)cc(-c4ccccc4)nc23)c1,AC50,[1],"0.398 µM [rising, partial curve]"
CCCN(c1ccc(C(C)C)cc1)S(=O)(=O)c1ccc2c(c1)oc(=O)n2CC(=O)OCC,AC50,[1],"7.94 µM [falling, full curve, poor fit]"
COc1ccc(-c2nc(CNC(=O)Nc3ccccc3)c(C)o2)cc1,AC50,[1],"39.8 µM [falling, single point]"
CCCSc1nnc2[nH]c(=O)cc(C)n12,AC50,[1],"5.01 µM [rising, single point]"
O=C(Nc1nnc(S(=O)(=O)Nc2ccccc2)s1)C1CCCCC1,AC50,[1],"3.16 µM [rising, partial curve]"
COc1cccc(NC(=O)c2oc3ccccc3c2NC(=O)C2CC2)c1,AC50,[1],"10 µM [falling, partial curve]"
CCN(CCNC(=O)C1CCN(Cc2nc(-c3cccc(Cl)c3)oc2C)CC1)c1ccccc1,AC50,[1],"15.8 µM [falling, partial curve]"
Cc1cc(-n2c(C)cc(C(=O)CSc3ncnc4ccccc34)c2C)no1,AC50,[1],"3.16 µM [falling, full curve]"
CCOC(=O)c1ccc(N2C(=O)c3n[nH]c(C)c3C2c2ccc(OCC)cc2)cc1 (centres undefined),AC50,[1],"39.8 µM [falling, single point]"
O=C(CSc1ncccc1-c1nc2ccccc2[nH]1)N1CCCCC1,AC50,[1],"0.631 µM [falling, full curve]"
C=CCOC(=O)c1sc(N2C(=O)c3oc4ccccc4c(=O)c3C2c2ccco2)nc1C (centres undefined),AC50,[1],"10 µM [falling, partial curve]"
COc1ccc(C(=O)Nc2nnc(C)s2)cc1,AC50,[1],"12.6 µM [falling, partial curve]"
CC(C)Cn1c(=O)c2ccccc2n2c(CCC(=O)N3CCN(c4ccccc4)CC3)nnc12,AC50,[1],"25.1 µM [falling, partial curve]"
CC(C)c1ccc(C2c3c(-c4ccccc4O)n[nH]c3C(=O)N2Cc2ccncc2)cc1 (centres undefined),AC50,[1],"12.6 µM [falling, partial curve]"
Cc1ccn2c(Nc3ccc4c(c3)OCCO4)c(-c3cccs3)nc2c1,AC50,[1],"39.8 µM [falling, single point]"
CC(=O)c1c(C)[nH]c(C(=O)NCCc2ccccc2)c1C,AC50,[1],"15.8 µM [falling, single point]"
Cc1ccccc1-c1nnc(-c2ccccc2)o1,AC50,[1],"20 µM [falling, partial curve]"
O=C(CSc1nnc(-c2ccc(Cl)cc2)o1)Nc1ccc(F)cc1,AC50,[1],"0.0501 µM [falling, full curve]"
CC(=O)N1CCc2c(sc3c2c(=O)n(CCc2ccccc2)c(=O)n3CC(=O)Nc2ccc(C)c(F)c2)C1,AC50,[1],"20 µM [falling, partial curve]"
Cc1[nH]c2ccccc2c1C1(O)C(=O)N(Cc2ccccc2Cl)c2ccccc21 (centres undefined),AC50,[1],"31.6 µM [falling, single point]"
O=C1CN(C(=O)c2ccco2)C(c2ccc(F)cc2)c2cc(Cl)ccc2N1 (centres undefined),AC50,[1],"12.6 µM [falling, partial curve]"
CCOc1ccc(OCC)c(NC(=O)CCc2nc3cccnc3n2-c2ccccc2)c1,AC50,[1],"20 µM [falling, single point]"
COC(=O)C(NC(=O)CCc1c(C)nc2c(c(C)nn2-c2ccccc2)c1C)C(C)C (centres undefined),AC50,[1],"15.8 µM [falling, partial curve]"
Cc1ccccc1NC(=O)[C@H](CSCc1ccccc1)N1Cc2ccccc2C1=O,AC50,[1],"20 µM [falling, single point]"
CCN(CC)C(=O)C1CCN(c2nnc(C)c3c(C)n(-c4ccc(Cl)cc4)nc23)CC1,AC50,[1],"39.8 µM [falling, single point]"
COc1ccc(-c2cc(C(=O)N3CCN(Cc4ccccc4)CC3)no2)cc1OC,AC50,[1],"2.51 µM [falling, full curve]"

# Reformatted: entries from further up.
compound	measurement	setting	value
Cc1cc(C)n(-c2nncc(-c3ccccc3)n2)n1	AC50	[1]	15.8 µM [falling, partial curve]
CCc1ccccc1NC(=O)N(C)CCc1c(C)nn(C)c1C	AC50	[1]	0.316 µM [rising, full curve, poor fit]
COC(=O)CCC(=O)Nc1cccc(Cl)c1	AC50	[1]	10 µM [falling, partial curve, poor fit] [measured here: IkB-luc green channel]
Cc1ccc(-c2nc3sc(CCNC(=O)c4ccc(C)c(C)c4)c(C)n3n2)cc1	AC50	[1]	6.31 µM [falling, partial curve]
O=C(CCS(=O)(=O)c1cccs1)Nc1ccc(C(=O)Nc2ccccc2F)cc1	AC50	[1]	31.6 µM [falling, single point]
